# Results reported in article PMC12670160, “A drug-repurposing screen of FDA- and EMA-approved drugs identifies two NF-κB inhibitors active against eumycetoma” (Journal of Antimicrobial Chemotherapy, 2025).
# Counter-ions that a name gives are not always drawn. Among all 5,300 compounds or so, about 130 (2.5%) showed an effect of 50% or more. The list shows a part of the results. Numbered stars: 1 amine (or outer) side, 2 acyl side, 3 side chain; on linkers, the order of the positions; unused ones are H or OH. Bridge positions count the residues as written; N and C are the ends. Peptide text beside a SMILES is read from it. X4 = O=C(CCC[*:2])[*:1]
# Tested on: M. mycetomatis strain mm55
# Settings: primary screen, metabolic activity vs growth control; 96 h, 2 µM; inhibitor
row,Compound,% viability [%]
1,"CN1CCN(S(=O)(=O)c2ccc(-c3cnc(N)c(C(=O)Nc4cccnc4)n3)cc2)CC1 [ONC0005129, azd2858]",89.64
2,"CC(N)(C(=O)O)c1ccc(-c2nnn[nH]2)cc1 (stereo not drawn) [ONC0003092, mtpg]",85.65
3,"C[C@]12CC[C@H](O)C[C@H]1CC[C@@H]1[C@@H]2C[C@@H](O)[C@]2(C)[C@@H](C3=CC(=O)OC3)CC[C@]12O [ONC0002441, digoxigenin]",96.66
4,"CCc1noc(C)c1-c1[nH]c2ccccc2c1C(O)CN(C)C (stereo not drawn) [ONC0005397, sari59801]",156.2
5,"O=C(Nc1cc(C(F)(F)F)cc(C(F)(F)F)c1)c1cc(Cl)ccc1O [IKK2 inhibitor V (IMD-0354), IMD-0354]",2.589
6,"O=C(Nc1cccnn1)N1CCC(=Cc2cccc(Oc3ccc(C(F)(F)F)cn3)c2)CC1 [ONC0001769, pf04457845]",98.3
7,"C[C@H](N[C@@H](CCc1ccccc1)C(=O)O)C(=O)N1CCC[C@H]1C(=O)O [ONC0003897, enalaprilat]",70.49
8,"O=C1N[C@H](C(=O)O)CS1 [ONC0005296, procysteine]",92.18
9,"NC(=O)N1CCC(CC(=O)N2CCC([C@H]3c4ncc(Br)cc4CCc4cc(Cl)cc(Br)c43)CC2)CC1 [ONC0004448, lonafarnib sch66336]",106.8
10,"Nc1nc2nc[nH]c2c(=S)[nH]1 [ONC0003925, tioguanine]",107.9
11,"COCCCC/C(=N\OCCN)c1ccc(C(F)(F)F)cc1 [ONC0004117, fluvoxamine maleate]",169.8
12,"CN1C(=O)c2c(nn(Cc3ccc(-c4cccc(F)n4)cc3)c2Nc2ccccc2)N2C1=N[C@@H]1CCC[C@@H]12 [ONC0002210, iti214]",93.79
13,"CC(C)C(=O)OC[C@@]1(N=[N+]=[N-])O[C@@H](n2ccc(N)nc2=O)[C@H](OC(=O)C(C)C)[C@@H]1OC(=O)C(C)C [ONC0001112, balapiravir]",67.01
14,"COC(=O)[C@H](c1ccccc1Cl)N1CCc2sccc2C1 [ONC0002451, clopidogrel sulfate]",93.13
15,"O=C(O)CCN(O)C(=O)CCCCCCCCC1CC1 [ONC0003551, tce5002]",124.5
16,"CCCOCCn1c(=O)c(N2CCN(CCO)CC2)nc2cnc(-c3ccc(OC)nc3)cc21 [ONC0001952, pf03049423]",82.32
17,"NC(=O)N[C@@H](CCC(=O)O)C(=O)O [ONC0005335, carglumic acid]",123.9
18,"O=C1NC(=O)/C(=C\c2cccc(C(F)(F)F)c2)S1 [ONC0004444, smi4a]",130.7
19,"CN1C/C=C/CCOc2cccc(c2)-c2ccnc(n2)Nc2cccc(c2)C1 [ONC0001026, sb1317]",86.64
20,"CCCCC1CCC(c2nc(-c3ccncc3)no2)CC1 (stereo not drawn) [ONC0002588, psn375963]",57.7
21,"Clc1ccc(C(OCCN2CCCCC2)c2ccccc2)cc1 (stereo not drawn) [ONC0002432, cloperastine hydrochloride]",104.4

# Shown with bars between the fields: entries from further up.
row | Compound | % viability [%]
12 | CN1C(=O)c2c(nn(Cc3ccc(-c4cccc(F)n4)cc3)c2Nc2ccccc2)N2C1=N[C@@H]1CCC[C@@H]12 [ONC0002210, iti214] | 93.79
13 | CC(C)C(=O)OC[C@@]1(N=[N+]=[N-])O[C@@H](n2ccc(N)nc2=O)[C@H](OC(=O)C(C)C)[C@@H]1OC(=O)C(C)C [ONC0001112, balapiravir] | 67.01

# (cont.)

row,Compound,% viability [%]
1,"C1Cc2[nH]nc(-c3nnn[nH]3)c2C1 [ONC0001195, mk0354]",106.7
2,"CCc1cc2cc(OC)c(OC)cc2c(Cc2ccccc2)n1 [ONC0003645, moxaverine]",67.43
3,"NS(=O)(=O)Nc1ncnc(OCCOc2ncc(Br)cn2)c1-c1ccc(Br)cc1 [ONC0002096, aprocitentan]",65.83
4,"c1ccc(-c2ncc(CN3CCN(c4ncccn4)CC3)[nH]2)cc1 [ONC0000007, ngd941]",130.5
5,"C[C@@H](NCc1cc(Br)cc2[nH]c(=O)c(=O)[nH]c12)P(=O)(O)O [ONC0002242, cgp78608]",62.66
6,"CC[C@H](/C=C/[C@@H](C)[C@H]1CC[C@H]2[C@@H]3CC=C4C[C@@H](O)CC[C@]4(C)[C@H]3CC[C@]12C)C(C)C [ONC0004621, stigmasterol stigmasterin]",79.69
7,"O=C(O)c1cn(-c2ccc(F)cc2)c2cc(N3CCNCC3)c(F)cc2c1=O [ONC0004168, sarafloxacin hydrochloride]",125.6
8,"Fc1ccc2nc(CCC#Cc3ccccn3)cn2c1 [ONC0000987, dipraglurant]",81.02
9,"O=C(O)Cc1ccc(-c2ccccc2)cc1 [ONC0005558, felbinac]",137.1
10,"CCOc1ccccc1N/N=C1/C(=O)N(c2nc(-c3ccccc3)cs2)N=C1C [ONC0004348, bam7]",99.99
11,"Cc1cc2c(cc1CC(=O)c1sccc1S(=O)(=O)Nc1onc(C)c1Cl)OCO2 [ONC0002487, sitaxsentan sodium]",69.63
12,"CC(=O)OCC(=O)[C@H]1CC[C@H]2[C@@H]3CC[C@H]4C[C@H](O)CC[C@]4(C)[C@H]3C(=O)C[C@]12C [ONC0002919, alfadoloneacetate]",58.51
13,O=C(NC[C@H]1CN(c2ccc(N3CCOCC3=O)cc2)C(=O)O1)c1ccc(Cl)s1 [rivaroxaban xarelto],98.3
14,"O=c1ccc2cc(O[C@@H]3O[C@H](CO)[C@@H](O)[C@H](O)[C@@H]3O)c(O)cc2o1 [ONC0005096, aesculin esculin]",111.9
15,"Cc1nnc(C(=O)NC(C)(C)c2nc(C(=O)NCc3ccc(F)cc3)c(O)c(=O)n2C)o1 [ONC0004886, raltegravir mk0518]",133.9
16,"COc1ccc(CN2C(=O)C(=O)c3cc(OC(F)(F)F)ccc32)cc1 [ONC0000083, vu0238429]",96.61
17,"O=C(O)c1cc2occc2[nH]1 [ONC0003725, sep227900]",109.2
18,"Cc1ccccc1OCC(O)CNCCOc1ccc(C(N)=O)cc1 (stereo not drawn) [ONC0005398, tolamolol]",88.16
19,"c1ccc(NCc2ccc(CNc3ccccn3)cc2)nc1 [ONC0004550, wz 811]",63.57
20,"Oc1ncc(F)cn1 [ONC0005399, 5fp]",80.31
21,"CN1CCN(Cc2ccc(Nc3ncc(Cl)c(Nc4ccccc4S(=O)(=O)N(C)C)n3)cc2)CC1 [ONC0002772, dubermatinib]",82.95

row,Compound,% viability [%]
1,"COC(=O)c1ccc2c(c1)nc(NC(=O)c1ccccc1)n2CCCc1ccccc1 [ONC0001215, brd4770]",70.54
2,"CCOC(=O)[C@@H](N)Cc1ccc(-c2cc(O[C@H](c3ccc(Cl)cc3-n3ccc(C)n3)C(F)(F)F)nc(N)n2)cc1 [ONC0004655, lx1606 hippurate]",100.2
3,"Oc1ccc2ccccc2c1 [ONC0003396, 2naphthol]",62.74
4,"Cc1cc2sc(NC(=O)Cc3ccccc3)nc2cc1Cl [ONC0001377, lh846]",97.62
5,"CC(C)CC(N)=O [ONC0002770, isovaleramide]",87.82
6,"COc1c2occc2cc2ccc(=O)oc12 [ONC0005318, methoxsalen]",102.8
7,"COc1ccc2c(c1OC)C(=O)O[C@H]2[C@H]1c2c(cc3c(c2OC)OCO3)CCN1C [ONC0000496, noscapine hydrochloride]",91.4
8,"Cn1c(=O)c2c(ncn2CC(=O)Nc2ccc(-c3ccccc3)nn2)n(C)c1=O [ONC0001345, etc159]",68.99
9,"CCc1ccccc1OC[C@@H](O)CN[C@H]1CCCc2ccccc21 [ONC0002548, sr59230a]",113.3
10,"NCc1ccccc1CC(=O)N[C@@H]1C(=O)N2C(C(=O)O)=C(CSc3nnnn3CC(=O)O)CS[C@H]12 [ONC0000321, ceforanide]",98.09
11,"N#Cc1ccc(C(c2ccc(C#N)cc2)n2cncn2)cc1 [ONC0004873, letrozole]",128.8
12,"CC(=O)NC[C@H]1CN(c2ccc(-c3ccc(CNCc4cnn[nH]4)cc3)c(F)c2)C(=O)O1 [ONC0002235, radezolid]",86.78
13,"CN(C(=O)CN1C(=O)COc2cc(Cl)c(Cl)cc21)[C@@H](CN1CCCC1)c1ccc(-c2cccc(C(N)=O)c2)cc1 [ONC0003625, gsk1562590]",72.46
14,"CN(C)C(=O)Nc1cccc(-c2ccc(N(C)C)cc2)c1 [ONC0005092, atglistatin]",81.63
15,"Clc1ccc(CCC(Cn2ccnc2)Sc2c(Cl)cccc2Cl)cc1 (stereo not drawn) [ONC0005620, butoconazole]",76.6
16,"O=C(O)[C@@H]1C[C@@H](C2CCCCC2)CN1C(=O)CP(=O)(O)CCCCc1ccccc1 [ONC0000345, fosinoprilat]",76.06
17,"O=C(Nc1cccc(Cl)c1)c1ccccn1 [ONC0004653, vu 0364770]",68.57
18,"COc1ccc(CNC(=O)c2sc3nc(C)cc(C)c3c2N)cc1 [ONC0000170, vu152100]",74.04
19,"N=C1NC(=O)/C(=C/c2ccc(O)cc2)S1 [ONC0000892, mirin]",80.47
21,"CC[C@H](C)[C@@H]1NC(=O)[C@H](Cc2ccc(OC)cc2)NC(=O)CCCSC[C@@H](C(=O)N2CCC[C@H]2C(=O)N[C@@H](CC(C)C)C(=O)NCC(N)=O)NC(=O)[C@H](CC(N)=O)NC(=O)[C@H](CCC(N)=O)NC1=O [ONC0002013, carbetocin] (Y(Me)IQNCPLG-NH2; linker N-5 via X4)",109.7
